# The supplement of paper PMC4635364
# Structures can show the parent of a compound that is named as a salt. The list shows a part of the results. This data set is noisy: repeats of one test often differ as much as different tests do.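 Cells: ReNCell VM human fetal ventral-midbrain neural progenitors, differentiated mitogen-free. Blinded raters compared doublecortin-stained (early neurons) or tyrosine hydroxylase-stained (dopaminergic neurons) images with untreated wells, where 0 means no change. After repeats and both raters were averaged, compounds scoring 2 or above became hits for retesting.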
# Tested on: ReNCell VM
# Assay: neuronal differentiation score (DCX+ cell fraction vs untreated, manual image score) (score (-3 to 3)); higher = more neuronal differentiation
# Details: library: Spectrum; 2 uM; 2 weeks
row,SMILES,neuronal differentiation score
1,CCCCc1ccc(C(=O)O)nc1,inactive: 0
2,COC(=O)C1=CO[C@@H](C)[C@H]2CN3CC[C@]4(C(=O)Nc5ccccc54)[C@@H]3C[C@H]12,inactive: 0
3,CN[C@@H]1[C@@H](O)[C@@H](O[C@@H]2[C@@H](O)[C@H](O[C@H]3O[C@H](CN)CC[C@H]3N)[C@@H](N)C[C@H]2N)OC[C@]1(C)O.CN[C@@H]1[C@@H](O)[C@@H](O[C@@H]2[C@@H](O)[C@H](O[C@H]3O[C@H]([C@@H](C)N)CC[C@H]3N)[C@@H](N)C[C@H]2N)OC[C@]1(C)O.CN[C@@H]1[C@@H](O)[C@@H](O[C@@H]2[C@@H](O)[C@H](O[C@H]3O[C@H]([C@@H](C)NC)CC[C@H]3N)[C@@H](N)C[C@H]2N)OC[C@]1(C)O,inactive: 0
4,C=CCC1(C(C)CCC)C(=O)NC(=S)NC1=O (stereo not given),inactive: 0
5,COc1ccc2c(c1O)-c1c(OC)c(OC)cc3c1[C@H](C2)N(C)CC3,inactive: 0
6,C=C/C=C\CC1=C(C)[C@@H](OC(=O)[C@@H]2[C@@H](/C=C(\C)C(=O)OC)C2(C)C)CC1=O.C=C/C=C\CC1=C(C)[C@@H](OC(=O)[C@@H]2[C@@H](C=C(C)C)C2(C)C)CC1=O,inactive: 0
7,C=CCN1CC[C@]23c4c5ccc(O)c4O[C@H]2C(=O)CC[C@@]3(O)[C@H]1C5,inactive: 0
8,CCOc1cc(C=O)ccc1O,inactive: 0
9,O=C1C=C2C(=CCOC2O)O1 (stereo not given),inactive: 0
10,CC[C@H]1[C@@H]2C[C@H]3[C@@H]4N(C)c5ccccc5[C@]45C[C@@H]([C@@H]2[C@H]5O)N3[C@@H]1O,inactive: 0
11,c1ccc2c(c1)[nH]c1cnccc12,inactive: 0
12,O=[N+]([O-])OCC(CO[N+](=O)[O-])O[N+](=O)[O-],inactive: 0
13,CN1CCc2cc3c(cc2[C@H]1[C@@H]1OC(=O)c2c1ccc1c2OCO1)OCO3,inactive: 0
14,O=c1ccc2c(O)c3ccoc3cc2o1,inactive: 0
15,CCOP(=S)(OCC)Oc1ccc2c(C)c(Cl)c(=O)oc2c1,inactive: 0
16,CC(=O)OC1CCC23C(=O)OC45CCC(C6=CC(=O)OC6)C4(C)CCC2C5CCC3(O)C1 (stereo not given),inactive: 0

# Two records picked at random from the list so far:
row,SMILES,neuronal differentiation score
11,c1ccc2c(c1)[nH]c1cnccc12,inactive: 0
4,C=CCC1(C(C)CCC)C(=O)NC(=S)NC1=O (stereo not given),inactive: 0

# Same assay, conditions: library: Tocriscreen; 2 uM; 2 weeks
row,SMILES,neuronal differentiation score
1,Cc1ccc2c(c1)C1(CCN(CCc3nc(-c4ccccc4)oc3C)CC1)OC(=O)N2,inactive: 0
2,"c1ccc(C2CNCc3ccccc32)cc1 (stereo not given) [4-Phenyl-1,2,3,4-tetrahydroisoquinoline hydrochloride]",inactive: 0
3,Clc1ccc(C2=CCCC3CCC2N3)cn1 (stereo not given) [UB 165 fumarate],inactive: 0
4,C#CCOC(=O)C1=CCCN(C)C1 [Arecaidine propargyl ester tosylate],inactive: 0
